# PubChem BioAssay AID1259254 – NCATS – 2017
# Screen: 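Finding genes that stop cells copying their DNA twice in one cycle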 (primary screen)
# System: human HCT116 colorectal cancer cells
# Reagents: single siRNA against human genes
# Duration: 3 days
# Read-out: 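Nuclei stained with Hoechst and imaged; cell-cycle phase assigned by DNA content; G2 share scaled per plate, non-targeting siRNA 0%, GMNN siRNA 100%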
# Direction: G2 robust z-score and G2 cells, % of GMNN control: higher = more G2 cells, more excess DNA replication; raw share of cells in G2: higher = larger share of cells with G2 DNA content
# Rule for the call: 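An siRNA counts as active if its G2 robust z-score lies at least 5 MADs above the screen median; here such calls match roughly 38% of GMNN control or more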
# This is a random part of about 59,000 reagents. Over the whole deposit, about 1,550 (2.6%) are marked active. 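G2 share is only a proxy for re-replication; each gene was hit by three separate siRNAs, and active genes were retested.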 Raw values are not corrected between plates. A number with no mark means an inactive call. Reagents against one gene are numbered here. Not stated in the record: the amount of reagent.
Target gene,reagent,G2 robust z-score,"G2 cells, % of GMNN control",raw share of cells in G2 (%)
OTOF,1,0.941,9.59,9.66
OTOF,2,1.44,13.1,9.4
OTOF,3,-0.121,2.12,4.18
LRRTM2,1,-0.501,-0.554,5.91
LRRTM2,2,-1.1,-4.76,2.61
LRRTM2,3,-1.12,-4.94,2.37
FAM3B,1,0.629,7.4,9.31
FAM3B,2,-0.859,-3.08,3.11
FAM3B,3,1.75,15.3,9.66
TTYH1,1,0.98,9.86,8.23
TTYH1,2,2.28,19,13.5
TTYH1,3,0.0555,3.36,4.09
NOP2,1,1.55,13.9,11
NOP2,2,0.954,9.68,6.39
NOP2,3,-0.13,2.05,6.15
GANC,1,1.21,11.5,9.41
GANC,2,0.813,8.69,6.75
GANC,3,-0.474,-0.371,5.12

Ordered by “G2 cells, % of GMNN control” (descending): some entries from above.
Target gene,reagent,G2 robust z-score,"G2 cells, % of GMNN control",raw share of cells in G2 (%)
FAM3B,3,1.75,15.3,9.66
FAM3B,1,0.629,7.4,9.31
FAM3B,2,-0.859,-3.08,3.11

The results go on.
Target gene,reagent,G2 robust z-score,"G2 cells, % of GMNN control",raw share of cells in G2 (%)
OR2AK2,1,0.505,6.52,6.18
OR2AK2,2,-0.771,-2.46,2.54
OR2AK2,3,-0.847,-2.99,3.55
ADAM28,1,-0.504,-0.579,5.36
ADAM28,2,-0.735,-2.2,4.13
ADAM28,3,-0.791,-2.6,2.94
ELFN2,1,1.24,11.7,11.1
ELFN2,2,-1.2,-5.48,2.61
ELFN2,3,-0.565,-1.01,4.1
PBRM1,1,0.262,4.81,6.16
PBRM1,2,-0.603,-1.27,5.87
PBRM1,3,-0.956,-3.76,2.77
